For experiment [1], the target named is SMN (survival of motor neuron) polypeptide, full-length (human) (UniProt Q16637). Nature of the experiment: co-precipitation with ZPR1 from cell lysates; Flag M2 IP from transfected COS7 cells, SMN immunoblot. A general note: A western blot detects proteins with antibodies after separation by electrophoresis.
For experiment [2] the target is unchanged. As to the kind of experiment: co-immunoprecipitation from transfected COS7 cells (Flag M2 IP, SMN immunoblot).

The chains behind the UniProt entries cited, without tags or fusion partners.
UniProt Q16637: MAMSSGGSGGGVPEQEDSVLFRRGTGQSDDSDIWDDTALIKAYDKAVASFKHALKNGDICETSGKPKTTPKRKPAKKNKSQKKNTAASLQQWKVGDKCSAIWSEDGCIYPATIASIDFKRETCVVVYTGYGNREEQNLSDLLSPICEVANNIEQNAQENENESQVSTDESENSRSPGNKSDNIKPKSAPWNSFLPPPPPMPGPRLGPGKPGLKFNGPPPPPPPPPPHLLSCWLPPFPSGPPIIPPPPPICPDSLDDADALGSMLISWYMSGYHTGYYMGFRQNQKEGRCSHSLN

This passage reports binding results from patent publication US20020102614A1.

No constants are given. Whether binding was seen depends on the method and setting. In cells and extracts the contact can be indirect. Some entries that bind do so weakly or less than the wild type. Tags and fused reporters may be left off the sequences shown.

B1: Flag-ZPR1 (full-length Flag-tagged ZPR1 expressed in transfected COS7 cells) (protein, mouse, UniProt Q62384 1-459, looked up, not shown: small tags and cut ends)
chain: MSASGAVQPGHPGAAVGPSPAAAASPATGPLFRPLSAEDEEQQPTEIESLCMNCYRNGTTRLLLTKIPFFREIIVSSFSCEHCGWNNTEIQSAGRIQDQGVRYTLTVRSQEDMNREVVKTDSATTRIPELDFEIPAFSQKGALTTVEGLISRAISGLEQDQPTRRAVEGAIAERIDEFIGKLKDLKQMASPFTLVIDDPSGNSFVENPHAPQKDNALVITYYDRTPQQAEMLGLQAEAPEEKAEEEDLRNEVLQFNTNCPECNAPAQTNMKLVQIPHFKEVIIMATNCENCGHRTNEVKSGGAVEPLGTRITLHITDPSDMTRDLLKSETCSVEIPELEFELGMAVLGGKFTTLEGLLKDIRELVTKNPFTLGDSSNPDQSEKLQEFSQKLGQIIEGKMKAHFIMNDPAGNSYLQNVYAPEDDPEMKVERYKRTFDQNEELGLNDMKTEGYEAGLAPQR
Consider B1, for which the binding entry in experiment [1] and in experiment [2] was “binds” throughout.
